For data set [1] the following is noted: simulated gi fluid, 1 h, pH 6.5.
For data set [2] the following is noted: buffer, 1 h, pH 7.4.

As to `COc1ncc(-c2cc(OC3CCOCC3)c3nc(N)nc(C)c3c2)cc1NS(=O)(=O)c1ccc(F)cc1F`, the Therm_solubility entry in data set [1] and in data set [2] was “Soluble” each time.

The record behind these values is ChEMBL document CHEMBL4321792, “Discovery of 4-Methylquinazoline Based PI3K Inhibitors for the Potential Treatment of Idiopathic Pulmonary Fibrosis” (J Med Chem, 2019).
